According to PubChem BioAssay AID720533 (National Center for Advancing Translational Sciences (NCATS), 2013):
Values joined by “and” are separate entries in the source; they are usually repeats but may differ in a detail not shown here. Identical values can stand only once. Screen size: about 18,000 compounds; about 750 (4.2%) were called active. The inconclusive results got no clear call from the source; some entries with a clear call stand among them for comparison. Calls follow the shape of the full dose curve; tested in HEK293 cells. Potencies of inconclusive entries are doubtful fits and often do not repeat.

Assay: qHTS for Inhibitors of binding or entry into cells for Lassa Virus
Settings: Lassa virus pseudotyped entry inhibition, cell-based qHTS; activity change, negative = inhibition: at 49.2 µM (top of the series) unless noted
% is scaled to controls: 0 for no effect and ±100 for the full control effect; potency is read from the fitted curve at half-maximal effect.

SMILES	Potency	activity change, negative = inhibition
O=S1(=O)CC(N2CCC(c3ccccc3)CC2)CN1C1CCCCC1 (centres undefined)	inactive	–
COc1cc(NS(C)(=O)=O)ccc1Nc1c2ccccc2nc2ccccc12	active: 3.16 µM	–
CC(NC(=O)c1cc(F)ccc1F)c1nnc2n1CCN(Cc1ccco1)CC2 (centres undefined)	inactive	–
O=[n+]1ccn([O-])c2ccccc21	inactive	–
COc1ccc2ccccc2c1CN1CCOc2ccc(CN3CCN(CCO)CC3)cc2C1	inconclusive: 35.5 µM [inhibitor, single point]	–
OC1(c2ccc(Cl)c(C(F)(F)F)c2)CCN(CCCC(c2ccc(F)cc2)c2ccc(F)cc2)CC1	active: 11.2 µM	–
CC(CC(c1ccccc1)c1ccccc1)NC(C)(C)C (centres undefined)	inconclusive: 15.8 µM [inhibitor, partial curve]	–
Cc1c(C(=O)N2CCCCCC2)sc2ncnc(NCC3CCCO3)c12 (centres undefined)	inactive	–
Fc1ccccc1-c1nc(-c2ccccc2)oc1NCc1ccccc1	–	inactive: -31.6% [at 8.59 µM]
CCOC(=O)[C@]12C[C@]3(OC)CCN(C(=O)N[C@@H]1c1ccccc1)[C@@H]32	–	inconclusive: -19.5% [inhibitor] [at 8.59 µM]
CCCCCC(=O)N1C[C@H](n2cc(C3CC3)nn2)[C@@H](O)C[C@H]1c1ccc(Cl)cc1	–	inconclusive: -37% [inhibitor]
O=C(CC1(c2cccc(F)c2)CC(=O)N(Cc2cccnc2)C1=O)N1CCCCCCC1 (centres undefined)	inconclusive: 17.8 µM [inhibitor, single point]	–
CC1C(=O)N(Cc2cn(CC3CCCCC3)nn2)CCS(=O)(=O)N1Cc1ccc(-c2ccc(F)nc2)cc1 (centres undefined)	inconclusive: 31.5 µM [inhibitor, single point]	–
C[C@@H]1CC[C@H]2C(=O)N3[C@@H](CC[C@@H](C)[C@@H]3c3ccc(-c4ccco4)cc3)C(=O)N2[C@@H]1c1ccc(-c2ccco2)cc1	–	inactive: -1.28% [at 8.59 µM]
O=C(c1cccs1)N1C[C@@H](O)[C@@H](n2cc(-c3ccc(F)cc3)nn2)C[C@@H]1c1ccc(Cl)cc1	–	inconclusive: -13% [inhibitor]
O=C(NCc1nnc2n1CCN(Cc1cccc(Cl)c1)CC2)c1cccc(F)c1	inconclusive: 11.2 µM [inhibitor, single point]	–
Nc1ccc2cc3ccc(N)cc3nc2c1	active: 25.1 µM	–
C#Cc1cccc2c1c(C(=O)c1ccc(Cn3c(C)nc4cnccc43)c(F)c1)cn2C(=O)N(C)C	inconclusive: 35.5 µM [inhibitor, single point]	–
CO[C@@H]1CC[C@@]2(C)[C@@H](CC[C@@]3(C)[C@H]2CC=C2[C@H]4CC(C)(C)[C@H](O)[C@@H](OC(C)=O)[C@]4(CO)[C@H](O)C[C@]23C)[C@@]1(C)CO (tested in a mixture with another compound)	inactive	–

SMILES	Potency	activity change, negative = inhibition
ClC1=C(Cl)[C@]2(Cl)[C@@H]3[C@@H]4C[C@@H]([C@H]5O[C@@H]45)[C@@H]3[C@@]1(Cl)C2(Cl)Cl	inconclusive: 35.5 µM [inhibitor, partial curve]	–
O=S(=O)(O)c1ccc2nc(-c3ccccc3)[nH]c2c1	inconclusive: 7.94 µM [inhibitor, full curve, poor fit]	–
O=C1c2ccccc2CN2C(=O)c3ccccc3CN12	inactive	–
Cc1ccc(C2CC(=O)Oc3cc(C)c(Cl)c(C)c32)cc1 (centres undefined)	inconclusive: 20 µM [inhibitor, partial curve]	–
CC(C)[C@@H](OCc1ccccc1)[C@H](C)CON=C1[C@H]2CCn3c(=O)n(-c4ccccc4)c(=O)n3[C@@H]2[C@H](O)[C@@H]2O[C@H]12	–	inactive: 9.81% [at 8.59 µM]
CCCCC/C=C\C=C\C(O)CCCCCCCC(=O)O (centres undefined)	inactive	–
Cc1cc2nc(N3CCCN(Cc4cccn4-c4ncccn4)CC3)nc(C)c2cc1C	inconclusive: 35.5 µM [inhibitor, single point]	–
Cc1cccc(CNc2ncnc3ccc(-c4ccc(C(=O)N(C)C)cc4)cc23)c1	inconclusive: 14.1 µM [inhibitor, single point]	–
COc1ccc(O[C@H]2C=C[C@@H](c3ccccc3)O[C@H]2CON=C(C)CCN2CCCCc3nc(C)c(C)cc32)cc1	–	inactive: 24.3% [at 8.59 µM]
COCC1CN(CCc2ccc(F)cc2)[S+](=O)([O-])c2c(OCCN3C(=O)[C@H]4[C@H](C3=O)[C@H]3C=C[C@@H]4C3)cccc2O1 (some centres undefined)	inactive	–
CCN1/C(=C/C=C/c2sc3ccccc3[n+]2CC)Sc2ccccc21	active: 2.51 µM	–
COC(=O)C(c1ccccc1Cl)N1CCc2sccc2C1 (centres undefined)	inconclusive: 35.5 µM [inhibitor, single point] and inconclusive: 15.8 µM [inhibitor, single point]	–
CC(C)(C)[C@]1(O)CCN2C[C@H]3c4ccccc4CCc4cccc(c43)[C@@H]2C1	inconclusive: 28.2 µM [inhibitor, single point]	–
CCN(CC)CCNC(=O)c1cnn(-c2ncc3c(n2)-c2ccc(OC)cc2CC3)c1C	inconclusive: 12.6 µM [inhibitor, partial curve, poor fit]	–
NCCc1ccc(O)cc1	inconclusive: 31.6 µM [inhibitor, partial curve]	–
c1ccc(C(NCc2cccnc2)(c2ccccc2)c2ccccc2)cc1	inconclusive: 11.2 µM [inhibitor, partial curve]	–
COC(=O)C1=C(C)NC(C)=C(C(=O)OCCSc2ccccc2)C1C (centres undefined)	active: 12.6 µM	–
COCc1c(C(=O)N2CCC(c3ccccc3)CC2)cnn1-c1nccc(-c2cc(C)sc2C)n1	inconclusive: 35.5 µM [inhibitor, single point]	–
Cc1cnc(SCc2ccccn2)nc1C1CCCN(C(=O)c2noc3c2CCCC3)C1 (centres undefined)	inconclusive: 28.2 µM [inhibitor, single point]	–
CO[C@H]1[C@H](NC(=O)c2ccsc2)c2ccccc2C12CCN(Cc1cc3ccccc3o1)CC2	inconclusive: 22.4 µM [inhibitor, partial curve, poor fit]	–

SMILES	Potency	activity change, negative = inhibition
CCCCCCCc1cc2ccc(F)cc2c2c(C(=O)OC)c(C(=O)OC)c(C(=O)OC)n12	–	inactive: -5.01% [at 8.59 µM]
Nc1nc(NCCc2ccc(O)cc2)nc2nc(-c3ccco3)nn12	inconclusive: 39.8 µM [inhibitor, single point] and inconclusive: 22.4 µM [inhibitor, partial curve]	–
COc1cc(OC)c(OC)cc1CN1CCOc2ccc(CN3C[C@@H](C)O[C@@H](C)C3)cc2C1	inactive	–
COc1ccc(-c2c(C)cc3oc(=O)cc(-c4ccccc4)c3c2C)cc1OC	inconclusive: 12.6 µM [inhibitor, partial curve]	–
Cc1ccc(CNc2ncnc3sc(C(=O)N4CCCC(C(N)=O)C4)c(C)c23)o1 (centres undefined)	inactive	–
COc1cc(C2CC(=O)Oc3cc(C)c(Cl)cc32)cc(OC)c1OC (centres undefined)	inactive	–
COC(=O)Nc1nc2ccc(S(=O)c3ccccc3)cc2[nH]1 (centres undefined)	inconclusive: 10 µM [inhibitor, full curve]	–
CC(=O)Oc1c2c(c3c(c1CC=C(C)C)O[C@@]14C(=CC5CC1C(C)(C)OC4(C/C=C(\C)C(=O)O)C5=O)C3=O)OC(C)(CCC=C(C)C)C=C2 (some centres undefined)	active: 6.31 µM	–
CCCS(=O)(=O)NCc1c(C)ncc2c1CCN(C(=O)c1cccc(-c3ccccc3F)c1)C2	inconclusive: 17.8 µM [inhibitor, partial curve, poor fit]	–
Cc1cnc(-n2ncc(C(=O)N(C)C3CCOC3)c2C)nc1-c1ccc(F)cc1 (centres undefined)	inactive	–
COc1cc(=O)n2c(c1C(=O)N(C)Cc1nccs1)CCN(Cc1cc3ccccc3s1)CC2	inactive	–
COc1cccc(C(=O)NCc2nc(-c3cccc(NC(=O)c4ccoc4C)c3)oc2C)c1	inconclusive: 28.2 µM [inhibitor, single point]	–
Cn1cc(C(=O)C(=O)N[C@H]2CN3CCC2CC3)c2ccccc21	inconclusive: 35.5 µM [inhibitor, single point]	–
O=C(c1ccc(Cn2cnnn2)cc1)N1CCOc2ccc(C(O)C3CCCCC3)cc2C1 (centres undefined)	inconclusive: 11.2 µM [inhibitor, partial curve]	–
C=CC[C@@H]1C=C[C@@H](Oc2ccc(OC)cc2)[C@H](COC(=O)c2ccc(Br)cc2)O1	–	inactive: -30.8% [at 8.59 µM]
CCCCC/C=C\C/C=C\C/C=C\C/C=C\CCCCOC(CO)CO	inconclusive: 22.4 µM [inhibitor, single point]	–
COc1cc(OC)c2c(-c3ccccc3)cc(=O)oc2c1C(CCN1CCOCC1)c1ccc2c(c1)OCO2 (centres undefined)	inconclusive: 3.55 µM [inhibitor, full curve]	–
COc1ccc(OC)c(CN2CCCC(c3nc(C)ncc3-c3ccc(F)cc3)C2)c1 (centres undefined)	inactive	–
CN(C)C1CCN(CCCOc2ccc(-c3ccc(C#N)cc3)cc2)C1 (centres undefined)	inconclusive: 12.6 µM [inhibitor, partial curve]	–
